Test results from patent EP4650362A1 (Beijing Tuo Jie Biopharmaceutical Co. Ltd., priority 2023, dated 2024).
Strings that start with PEPTIDE1 are HELM notation: dots part the residues, brackets hold end groups and non-standard residues.

Experiment: general procedure: Fmoc solid-phase peptide synthesis; Fmoc-Val-Wang resin
Settings: whole synthesis, WATERS H-CLASS analytical UHPLC, ReproSil-Pur Basic C-18, scale of the general procedure 0.1 mmol
With “PEPTIDE1{[dR].K.K.R.[dR].Q.R.R.[dR].G.[Aib].[Dab].T.[Tle].[Tle].T.D.V}$$$$V2.0” the “final HPLC purity” value was 97.82%. For “PEPTIDE1{[dY].G.[dR].[dK].[dK].[dR].[dR].[dQ].[dR].[dR].[dR].G.[Aib].[Dab].T.[Chg].[Tle].S.D.V}$$$$V2.0”, the “final HPLC purity” value was 98.95%. With “PEPTIDE1{[dY].G.[dR].[dK].[dK].[dR].[dR].[dQ].[dR].[dR].[dR].G.[Aib].[Dab].T.[Tle].[Tle].T.D.V}$$$$V2.0” the “final HPLC purity” value was 97.92%. For “PEPTIDE1{[dY].G.[dR].[dK].[dK].[dR].[dR].[dQ].[dR].[dR].[dR].T.[homoArg].[homoArg].I.T.D.V}$$$$V2.0”, the “final HPLC purity” value was 98.77%. For “PEPTIDE1{[dY].G.[dR].[dK].[dK].[dR].[dR].[dQ].[dR].[dR].[dR].[Nle].T.T.[Tle].[Tle].T.D.V}$$$$V2.0”, the “final HPLC purity” value was 97.93%. In the case of “y-G-r-k-k-r-r-q-r-r-r-AEEA-Tle-Tle-T-D-V”, the “final HPLC purity” value is reported as 98.73%. For “y-G-r-k-k-r-r-q-r-r-r-G-Aib-Dab-homoArg-Tle-Tle-T-D-V”, the “final HPLC purity” value was 98.68%. In the case of y-G-r-k-k-r-r-q-r-r-r-G-T-Chg-Tle-S-D-V, the “final HPLC purity” value is reported as 98.54%. In the case of y-G-r-k-k-r-r-q-r-r-r-G-T-Tle-Tle-T-D-V, the “final HPLC purity” value is reported as 97.06%.

Same assay, conditions: whole synthesis, scale 0.1 mmol
In the case of “PEPTIDE1{[dY].G.[dR].[dK].[dK].[dR].[dR].[dQ].[dR].[dR].[dR].G.[Aib].[Dab].T.[Tle].[Tle].T.D.V}$$$$V2.0”, the isolated yield is reported as “about 20%”.
